# According to PubChem BioAssay AID1259415 (National Center for Advancing Translational Sciences (NCATS), 2018):
# “And” between values parts separate entries of the source, which are not always exact repeats. Equal values may be shown once. Screen size: about 410,000 compounds; about 18,000 (4.4%) were called active. Inconclusive results, whose numbers are uncertain, are shown with a selection of clear calls. Rule as the data show it: active = activity change below about -60%; inconclusive = no clear call, values can overlap the other calls; inactive = above about -39%.
# Assay: qHTS Assay for inhibitors of the human cytomegalovirus (HCMV)
# Conditions: HFF cells, HCMV-luciferase reporter, 72 h; at 57.5 µM; stronger effect = lower value
# In short: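 HFF cells seeded 16 h at 37C, treated with compounds, infected with luciferase-reporter HCMV at MOI 1 PFU/cell; luciferase read at 72 h post infection, normalized to buffer-only and Salinomycin controls.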
# % is scaled to controls: 0 for no effect and ±100 for the full control effect.
row,Compound,"activity change, negative = inhibition"
1,COc1ccccc1OCC(=O)N/N=C1\CCCCc2ccccc21,inconclusive: -45.1%
2,O=C(COc1cccc(F)c1)N[C@@H](Cc1ccccc1)c1nc2ccccc2[nH]1,inconclusive: -55.9%
3,COC(=O)c1cnc(Oc2ccc(NC(=O)NC(=O)c3c(OC)cccc3OC)cc2)cc1C(F)(F)F,active: -97.9%
4,CCC1CCCCN1C(=O)COC(=O)c1cccs1 (configuration not stated),inconclusive: -42.5%
5,Cc1ncc(CN2CCCC(C(=O)c3cccc(OC(C)C)c3)C2)s1 (configuration not stated),active: -68.8%
6,O=C(c1ccc(F)cc1)N1CCN(c2cnn(-c3ccccc3)c(=O)c2Cl)CC1,inconclusive: -56.6%
7,CC1Sc2ccc(S(=O)(=O)CCC(=O)N3CCN(c4ccccc4F)CC3)cc2NC1=O (configuration not stated),active: -69.9%
8,CCN(CC)S(=O)(=O)c1ccc2c(c1)N(CC(=O)NCCc1ccccc1)C(=O)CO2,inactive: 20.4%
9,O=c1[nH]c2cc([N+](=O)[O-])ccc2c2ccc([N+](=O)[O-])cc12,inconclusive: -50.8%
10,O=C(Nc1nccs1)c1cc2c(s1)-c1ccccc1OC2,inconclusive: -53.3%
11,COc1ccc(-n2ncc(C(=O)N3CCN(C4CCCCC4)CC3)c2C2CCN(C(=O)OC(C)(C)C)CC2)cc1,inconclusive: 0%
12,COc1ccc(NC(=O)CN(C)Cc2cccs2)cc1Cl,inactive: 13.9%
13,COc1cc2c(cc1NC(=O)COCC(=O)O)oc1ccccc12,inconclusive: -50.1%
14,C=CCCC1CN(Cc2ccc(OC)cc2)S(=O)(=O)c2c(Oc3ccc(C(C)C)cc3)cccc2O1 (configuration not stated),inactive: -28.9% and inactive: -8.79%
15,O=C(CSc1nn(-c2ccccc2)c(=S)s1)Nn1cnnc1,inactive: -11.1%
16,CCOc1ccc(NC(=O)Cc2c(O)c3ccccc3[nH]c2=O)cc1,inactive: -14.5%
17,COc1ccccc1Cn1c(=S)[nH]c2cc(C(=O)N3CC(C)CC(C)C3)ccc2c1=O (configuration not stated),inconclusive: -46.3%
18,CCc1cc2ccc(C)cc2nc1SCC(=O)Nc1c[nH]c(=O)[nH]c1=O,inconclusive: -43.6%
19,COc1ccc(NC(=O)C2Cc3c(-c4cccc(C(C)=O)c4)ccnc3O2)cc1OC (configuration not stated),active: -91.5%

row,Compound,"activity change, negative = inhibition"
1,CC1(c2ccccc2Cl)NC(=O)N(CC(=O)N2CCc3ccccc3C2)C1=O (configuration not stated),inactive: -11.7%
2,Cc1ccccc1Nc1nc(NCc2ccco2)c2ccccc2n1,inconclusive: -45%
3,CN(C)CCOc1cc(Cl)cc(Cl)c1,inconclusive: -43.1%
4,C=CCN(c1ccccc1)S(=O)(=O)c1cccc(C(=O)Nc2cc(C)ccn2)c1,inconclusive: -44.7%
5,COC(=O)c1sc(N2C(=O)c3oc4ccc(C)cc4c(=O)c3C2c2ccc(O)c(OC)c2)nc1C (configuration not stated),inactive: 7.73%
6,CCC(=O)Nc1nc2ccccc2n1CCN1CCOCC1,inactive: -20.9%
7,Cc1ccc(C(=O)CSc2nnnn2C(C)C)c(C)c1,inconclusive: -53.5%
8,COc1ccccc1CCN1CCCC(CN(C)C(=O)c2ccoc2)C1 (configuration not stated),inconclusive: -44.5%
9,CCN(c1ccc(OC)cc1)S(=O)(=O)c1ccc2c(c1)CC(C)N2C(=O)C1CC1 (configuration not stated),inconclusive: -41.8%
10,CC(=O)c1ccc(OCc2nnn(CC(=O)NS(=O)(=O)c3ccc(C)cc3)c2-c2ccccc2)cc1,inconclusive: -47.6%
11,CC(O)(C#CCN1CCCCCC1)c1ccccc1 (configuration not stated),active: -102%
12,O=C(CCSc1ccccc1)NC1CCCCCC1,inconclusive: -56.2%
13,CCN(CC)c1ccc(C=O)c(OC)c1,inconclusive: -46.6%
14,O=C(CCS(=O)(=O)c1ccc(F)cc1)Nc1nc(-c2ccccn2)cs1,active: -106%
15,COc1ccc(C(=O)N2CCCCC2c2cc(C(=O)Nc3cccc(C#N)c3)no2)cc1 (configuration not stated),inactive: 1.3%
16,OC(CNCC1CCCO1)Cn1c2ccc(Cl)cc2c2cc(Cl)ccc21 (configuration not stated),inactive: 60.9%
17,S=C1CSc2ccccc2N1,inconclusive: -53.8%
18,COc1ccccc1-c1cc(C(=O)N/N=C/c2sccc2C)c2ccccc2n1,inconclusive: -43.6%
19,Fc1cc(F)cc(NC(=S)Nc2ccccc2N2CCOCC2)c1,active: -62.2%

# Retrieved by compound from the entries so far, 3 records:
row,Compound,"activity change, negative = inhibition"
7,Cc1ccc(C(=O)CSc2nnnn2C(C)C)c(C)c1,inconclusive: -53.5%
8,COc1ccccc1CCN1CCCC(CN(C)C(=O)c2ccoc2)C1 (configuration not stated),inconclusive: -44.5%
13,CCN(CC)c1ccc(C=O)c(OC)c1,inconclusive: -46.6%

# (further entries)

row,Compound,"activity change, negative = inhibition"
1,Oc1cc2c(cc1C(c1ccc(Cl)c(Cl)c1)N1CCCC1)OCO2 (configuration not stated),active: -97%
2,Cc1ccccc1OCCOCCN1CCCCCC1,inconclusive: -41%
3,CC(=O)N(C(C)=O)n1c(C)nc2sc3c(c2c1=O)CCCC3,inconclusive: -43.5%
4,Cc1nc(CN(C)Cc2nc(Cc3ccccc3Cl)no2)cs1,inconclusive: -49.8%
5,CCn1nc(C)c(/C=C/C(=O)Nc2ccc(C)cc2C)c1C,active: -72.7%
6,Cn1c(=O)n(CC(=O)O)c(=O)c2c1nc1n2CCCN1Cc1ccccc1,inactive: 8.98%
7,Cc1nn(-c2ccccc2)c2sc(C(=O)Nc3cccc(Cl)c3)cc12,inconclusive: -47.1%
8,CCc1ccccc1NC(=O)COc1ccc(C(=S)N2CCCC2)cc1,inconclusive: -42%
9,CCc1cccc(NC(=O)CSc2nc3ccccc3nc2N2CCCCC2)c1,active: -79.8%
10,CN(C)C(=O)c1ccc(Nc2nc(-c3cccs3)nc3ccccc23)cc1,inconclusive: -40.9%
11,CCOC(=O)c1cc(-c2ccccc2)sc1NC(=O)CCN1C(=O)c2ccccc2C1=O,inconclusive: -41.6%
12,COc1cccc(/C=N/NC(=O)CNC(=O)c2cccnc2)c1O,inactive: 62.4%
13,CCCCn1c(N)c(-c2nc3ccccc3o2)c2c([N+](=O)[O-])nn(CC)c(=O)c21,inconclusive: -41.6%
14,Fc1ccccc1NC(=S)Nc1ccc(Br)cc1,inconclusive: -45.3%
15,Cc1nc2c(OCc3ccc(C#N)cc3)cccn2c1N(C)Cc1cccs1,inactive: -12.4%
16,COc1cc(C(=O)Nc2ccc(Cl)c(C(F)(F)F)c2)cc(OC)c1OC,inactive: -7.42%
17,Cc1ccc(CNC(=O)Cn2nc(N3CCN(c4ccccc4)CC3)ccc2=O)cc1,inactive: -34.9%
18,CCc1c(C(C)=O)oc2ccc3c(C)cc(=O)oc3c12,inconclusive: -41.8%
19,COc1ccc(-n2ccnc2SCC(=O)Nc2cccc(OC)c2)cc1,inconclusive: -52.7%
